Paper PMC3229523, “Identification of Lactoferricin B Intracellular Targets Using an Escherichia coli Proteome Chip” (PLoS ONE, 2011)
Results are given in words; binding and its absence hold for the method and conditions named. Some results given as binding are weak or reduced against the parent protein; the word gives no strength.

T1: DyLight 549-labeled Lactoferricin B (UniProt P24627)
T1 sequence (peptide, DyLight 549 (NHS ester labelling, sites not stated)): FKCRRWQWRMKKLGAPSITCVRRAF

B1: RecC (protein, UniProt P07648 1-1122)
chain: MLRVYHSNRLDVLEALMEFIVERERLDDPFEPEMILVQSTGMAQWLQMTLSQKFGIAANIDFPLPASFIWDMFVRVLPEIPKESAFNKQSMSWKLMTLLPQLLEREDFTLLRHYLTDDSDKRKLFQLSSKAADLFDQYLVYRPDWLAQWETGHLVEGLGEAQAWQAPLWKALVEYTHQLGQPRWHRANLYQRFIETLESATTCPPGLPSRVFICGISALPPVYLQALQALGKHIEIHLLFTNPCRYYWGDIKDPAYLAKLLTRQRRHSFEDRELPLFRDSENAGQLFNSDGEQDVGNPLLASWGKLGRDYIYLLSDLESSQELDAFVDVTPDNLLHNIQSDILELENRAVAGVNIEEFSRSDNKRPLDPLDSSITFHVCHSPQREVEVLHDRLLAMLEEDPTLTPRDIIVMVADIDSYSPFIQAVFGSAPADRYLPYAISDRRARQSHPVLEAFISLLSLPDSRFVSEDVLALLDVPVLAARFDITEEGLRYLRQWVNESGIRWGIDDDNVRELELPATGQHTWRFGLTRMLLGYAMESAQGEWQSVLPYDESSGLIAELVGHLASLLMQLNIWRRGLAQERPLEEWLPVCRDMLNAFFLPDAETEAAMTLIEQQWQAIIAEGLGAQYGDAVPLSLLRDELAQRLDQERISQRFLAGPVNICTLMPMRSIPFKVVCLLGMNDGVYPRQLAPLGFDLMSQKPKRGDRSRRDDDRYLFLEALISAQQKLYISYIGRSIQDNSERFPSVLVQELIDYIGQSHYLPGDEALNCDESEARVKAHLTCLHTRMPFDPQNYQPGERQSYAREWLPAASQAGKAHSEFVQPLPFTLPETVPLETLQRFWAHPVRAFFQMRLQVNFRTEDSEIPDTEPFILEGLSRYQINQQLLNALVEQDDAERLFRRFRAAGDLPYGAFGEIFWETQCQEMQQLADRVIACRQPGQSMEIDLACNGVQITGWLPQVQPDGLLRWRPSLLSVAQGMQLWLEHLVYCASGGNGESRLFLRKDGEWRFPPLAAEQALHYLSQLIEGYREGMSAPLLVLPESGGAWLKTCYDAQNDAMLDDDSTLQKARTKFLQAYEGNMMVRGEGDDIWYQRLWRQLTPETMEAIVEQSQRFLLPLFRFNQS
B2: YnhE (protein, UniProt P77522 1-495)
chain: MSRNTEATDDVKTWTGGPLNYKEGFFTQLATDELAKGINEEVVRAISAKRNEPEWMLEFRLNAYRAWLEMEEPHWLKAHYDKLNYQDYSYYSAPSCGNCDDTCASEPGAVQQTGANAFLSKEVEAAFEQLGVPVREGKEVAVDAIFDSVSVATTYREKLAEQGIIFCSFGEAIHDHPELVRKYLGTVVPGNDNFFAALNAAVASDGTFIYVPKGVRCPMELSTYFRINAEKTGQFERTILVADEDSYVSYIEGCSAPVRDSYQLHAAVVEVIIHKNAEVKYSTVQNWFPGDNNTGGILNFVTKRALCEGENSKMSWTQSETGSAITWKYPSCILRGDNSIGEFYSVALTSGHQQADTGTKMIHIGKNTKSTIISKGISAGHSQNSYRGLVKIMPTATNARNFTQCDSMLIGANCGAHTFPYVECRNNSAQLEHEATTSRIGEDQLFYCLQRGISEEDAISMIVNGFCKDVFSELPLEFAVEAQKLLAISLEHSVG
B3: YdaU (protein, UniProt P76065 1-285)
chain: MLFVLILSHRAASYGAIMAALPYMQLYIADYLADTMHLSAEEHGAYLLLMFNYWQTGKPIPKNRLAKIARLTNERWADVEPSLQEFFCDNGEEWVHLRIEEDLASVREKLTKKSAAGKASVQARRSRKEADVQTKQERNLTGVQTDVEVVFEHDVNTKATNKDTDKDLKTDPPLNPPRGNRGVKKFDPLDITLPNWISVSLWREWVEFRQALRKPIRTEQGANGAIRELEKFRQQGFSPEQVIRHSIANEYQGLFAPKGVRPETLLRQVNTVSLPDSAIPPGFRG
B4: YjbM (protein, UniProt P32694 1-235)
chain: MWVNKYIDDCTDEDLNDRDFIASVVDRAIFHFAINSICNPGDNKDAMPIEQCTFDVETKNDLPSTVQLFYEESKDNEPLANIHFQAIGSGFLTFVNACQEHDDNSLKLFASLLISLSYSSAYADLSETVYINENNESYLKAQFEKLSQRDMKKYLGEMKRLADGGEMNFDGYLDKMSHLVNEGTLDPDILSKMRDAAPQLISFAKSFDPTSKEEIKILTDTSKLIYDLFGVKSEK
B5: phosphoenolpyruvate carboxylase (enzyme, UniProt P00864 1-883)
chain: MNEQYSALRSNVSMLGKVLGETIKDALGEHILERVETIRKLSKSSRAGNDANRQELLTTLQNLSNDELLPVARAFSQFLNLANTAEQYHSISPKGEAASNPEVIARTLRKLKNQPELSEDTIKKAVESLSLELVLTAHPTEITRRTLIHKMVEVNACLKQLDNKDIADYEHNQLMRRLRQLIAQSWHTDEIRKLRPSPVDEAKWGFAVVENSLWQGVPNYLRELNEQLEENLGYKLPVEFVPVRFTSWMGGDRDGNPNVTADITRHVLLLSRWKATDLFLKDIQVLVSELSMVEATPELLALVGEEGAAEPYRYLMKNLRSRLMATQAWLEARLKGEELPKPEGLLTQNEELWEPLYACYQSLQACGMGIIANGDLLDTLRRVKCFGVPLVRIDIRQESTRHTEALGELTRYLGIGDYESWSEADKQAFLIRELNSKRPLLPRNWQPSAETREVLDTCQVIAEAPQGSIAAYVISMAKTPSDVLAVHLLLKEAGIGFAMPVAPLFETLDDLNNANDVMTQLLNIDWYRGLIQGKQMVMIGYSDSAKDAGVMAASWAQYQAQDALIKTCEKAGIELTLFHGRGGSIGRGGAPAHAALLSQPPGSLKGGLRVTEQGEMIRFKYGLPEITVSSLSLYTGAILEANLLPPPEPKESWRRIMDELSVISCDVYRGYVRENKDFVPYFRSATPEQELGKLPLGSRPAKRRPTGGVESLRAIPWIFAWTQNRLMLPAWLGAGTALQKVVEDGKQSELEAMCRDWPFFSTRLGMLEMVFAKADLWLAEYYDQRLVDKALWPLGKELRNLQEEDIKVVLAIANDSHLMADLPWIAESIQLRNIYTDPLNVLQAELLHRSRQAEKEGQEPDPRVEQALMVTIAGIAAGMRNTG
B6: GldA (protein, UniProt P0A9S5 1-367)
chain: MDRIIQSPGKYIQGADVINRLGEYLKPLAERWLVVGDKFVLGFAQSTVEKSFKDAGLVVEIAPFGGECSQNEIDRLRGIAETAQCGAILGIGGGKTLDTAKALAHFMGVPVAIAPTIASTDAPCSALSVIYTDEGEFDRYLLLPNNPNMVIVDTKIVAGAPARLLAAGIGDALATWFEARACSRSGATTMAGGKCTQAALALAELCYNTLLEEGEKAMLAAEQHVVTPALERVIEANTYLSGVGFESGGLAAAHAVHNGLTAIPDAHHYYHGEKVAFGTLTQLVLENAPVEEIETVAALSHAVGLPITLAQLDIKEDVPAKMRIVAEAACAEGETIHNMPGGATPDQVYAALLVADQYGQRFLQEWE
B7: Adi (protein, UniProt P28629 1-755)
chain: MKVLIVESEFLHQDTWVGNAVERLADALSQQNVTVIKSTSFDDGFAILSSNEAIDCLMFSYQMEHPDEHQNVRQLIGKLHERQQNVPVFLLGDREKALAAMDRDLLELVDEFAWILEDTADFIAGRAVAAMTRYRQQLLPPLFSALMKYSDIHEYSWAAPGHQGGVGFTKTPAGRFYHDYYGENLFRTDMGIERTSLGSLLDHTGAFGESEKYAARVFGADRSWSVVVGTSGSNRTIMQACMTDNDVVVVDRNCHKSIEQGLMLTGAKPVYMVPSRNRYGIIGPIYPQEMQPETLQKKISESPLTKDKAGQKPSYCVVTNCTYDGVCYNAKEAQDLLEKTSDRLHFDEAWYGYARFNPIYADHYAMRGEPGDHNGPTVFATHSTHKLLNALSQASYIHVREGRGAINFSRFNQAYMMHATTSPLYAICASNDVAVSMMDGNSGLSLTQEVIDEAVDFRQAMARLYKEFTADGSWFFKPWNKEVVTDPQTGKTYDFADAPTKLLTTVQDCWVMHPGESWHGFKDIPDNWSMLDPIKVSILAPGMGEDGELEETGVPAALVTAWLGRHGIVPTRTTDFQIMFLFSMGVTRGKWGTLVNTLCSFKRHYDANTPLAQVMPELVEQYPDTYANMGIHDLGDTMFAWLKENNPGARLNEAYSGLPVAEVTPREAYNAIVDNNVELVSIENLPGRIAANSVIPYPPGIPMLLSGENFGDKNSPQVSYLRSLQSWDHHFPGFEHETEGTEIIDGIYHVMCVKA
B8: NrdD (protein, UniProt P28903 1-712)
chain: MTPHVMKRDGCKVPFKSERIKEAILRAAKAAEVDDADYCATVAAVVSEQMQGRNQVDINEIQTAVENQLMSGPYKQLARAYIEYRHDRDIEREKRGRLNQEIRGLVEQTNASLLNENANKDSKVIPTQRDLLAGIVAKHYARQHLLPRDVVQAHERGDIHYHDLDYSPFFPMFNCMLIDLKGMLTQGFKMGNAEIEPPKSISTATAVTAQIIAQVASHIYGGTTINRIDEVLAPFVTASYNKHRKTAEEWNIPDAEGYANSRTIKECYDAFQSLEYEVNTLHTANGQTPFVTFGFGLGTSWESRLIQESILRNRIAGLGKNRKTAVFPKLVFAIRDGLNHKKGDPNYDIKQLALECASKRMYPDILNYDQVVKVTGSFKTPMGCRSFLGVWENENGEQIHDGRNNLGVISLNLPRIALEAKGDEATFWKLLDERLVLARKALMTRIARLEGVKARVAPILYMEGACGVRLNADDDVSEIFKNGRASISLGYIGIHETINALFGGEHVYDNEQLRAKGIAIVERLRQAVDQWKEETGYGFSLYSTPSENLCDRFCRLDTAEFGVVPGVTDKGYYTNSFHLDVEKKVNPYDKIDFEAPYPPLANGGFICYGEYPNIQHNLKALEDVWDYSYQHVPYYGTNTPIDECYECGFTGEFECTSKGFTCPKCGNHDASRVSVTRRVCGYLGSPDARPFNAGKQEEVKRRVKHLGNGQIG

Each binder was assayed against T1, DyLight 549-labeled Lactoferricin B (assay: fluorescence polarisation; data not shown; DyLight 549-labeled LfcinB with the tested proteins, compared with BSA; both purified).

binding, binds:
B1
B2
B3
B4
B5
B6
B7
B8
